Article PMC10205867
Results are given in words; binding and its absence hold for the method and conditions named. In cells and extracts the contact can be indirect. Some results given as binding are weak or reduced against the parent protein; the word gives no strength. Where a sequence is shown, tags or fusion partners need not be part of it.

Sequences of proteins named here, by UniProt entry; tags and fusion partners are left off. Residues count along the entry.
UniProt O75460, residues 19-977: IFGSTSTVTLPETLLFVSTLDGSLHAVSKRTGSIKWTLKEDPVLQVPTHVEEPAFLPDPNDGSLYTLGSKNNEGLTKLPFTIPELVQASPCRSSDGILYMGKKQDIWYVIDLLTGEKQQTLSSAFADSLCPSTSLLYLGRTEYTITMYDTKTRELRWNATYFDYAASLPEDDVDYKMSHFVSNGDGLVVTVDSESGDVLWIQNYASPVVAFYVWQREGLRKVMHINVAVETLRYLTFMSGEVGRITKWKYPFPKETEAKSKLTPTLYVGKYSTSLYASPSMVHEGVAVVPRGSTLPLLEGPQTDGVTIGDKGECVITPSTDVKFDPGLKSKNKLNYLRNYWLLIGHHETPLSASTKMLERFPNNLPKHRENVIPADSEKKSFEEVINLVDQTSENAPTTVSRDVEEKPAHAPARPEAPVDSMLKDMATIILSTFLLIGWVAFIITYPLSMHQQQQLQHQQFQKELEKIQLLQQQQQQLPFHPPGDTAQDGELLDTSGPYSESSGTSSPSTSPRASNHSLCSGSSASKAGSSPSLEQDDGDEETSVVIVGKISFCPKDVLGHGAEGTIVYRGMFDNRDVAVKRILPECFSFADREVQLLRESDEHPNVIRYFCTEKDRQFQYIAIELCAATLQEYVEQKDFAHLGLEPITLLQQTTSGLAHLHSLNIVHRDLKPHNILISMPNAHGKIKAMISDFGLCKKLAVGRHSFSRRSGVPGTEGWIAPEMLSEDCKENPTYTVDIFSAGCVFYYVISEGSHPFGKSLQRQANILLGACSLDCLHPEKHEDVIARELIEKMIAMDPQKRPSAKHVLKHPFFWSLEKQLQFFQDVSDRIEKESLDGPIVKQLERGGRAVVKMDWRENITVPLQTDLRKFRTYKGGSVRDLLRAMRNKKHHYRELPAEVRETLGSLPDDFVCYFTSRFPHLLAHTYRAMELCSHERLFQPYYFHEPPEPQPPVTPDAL

Biological target: T1, Flag-tagged PARP16 (Poly (ADP-ribose) polymerases 16) (rat) (UniProt Q5U2Q4)
T1 sequence: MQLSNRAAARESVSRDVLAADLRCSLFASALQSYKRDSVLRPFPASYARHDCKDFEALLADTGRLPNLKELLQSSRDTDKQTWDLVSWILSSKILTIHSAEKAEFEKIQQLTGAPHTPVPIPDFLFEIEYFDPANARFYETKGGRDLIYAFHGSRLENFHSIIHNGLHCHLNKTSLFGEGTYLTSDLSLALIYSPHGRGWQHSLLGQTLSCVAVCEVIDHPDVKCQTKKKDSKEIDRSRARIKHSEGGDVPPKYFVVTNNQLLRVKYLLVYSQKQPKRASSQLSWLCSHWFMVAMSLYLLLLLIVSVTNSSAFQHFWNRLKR
Test: co-IP; lysate (IP-RIPA buffer) of 293T cells transfected by Flag-tagged PARP16 lentiviruses; 1 mg total protein with 3-5 μg antibody (Flag) overnight at 4 °C, Protein A/G PLUS-Agarose 2 h at RT, washed 4 times; western blot for IRE1α

binding: binds
Substance: Inositol Requiring Enzyme 1α (IRE1α) (from UniProt O75460 19-977)
